## Percent effect of library compounds

Protein sequences, listed by entry. Tags and fused reporters are not part of them. Residues count along the entry.
UniProt Q8IDJ8, 1-583: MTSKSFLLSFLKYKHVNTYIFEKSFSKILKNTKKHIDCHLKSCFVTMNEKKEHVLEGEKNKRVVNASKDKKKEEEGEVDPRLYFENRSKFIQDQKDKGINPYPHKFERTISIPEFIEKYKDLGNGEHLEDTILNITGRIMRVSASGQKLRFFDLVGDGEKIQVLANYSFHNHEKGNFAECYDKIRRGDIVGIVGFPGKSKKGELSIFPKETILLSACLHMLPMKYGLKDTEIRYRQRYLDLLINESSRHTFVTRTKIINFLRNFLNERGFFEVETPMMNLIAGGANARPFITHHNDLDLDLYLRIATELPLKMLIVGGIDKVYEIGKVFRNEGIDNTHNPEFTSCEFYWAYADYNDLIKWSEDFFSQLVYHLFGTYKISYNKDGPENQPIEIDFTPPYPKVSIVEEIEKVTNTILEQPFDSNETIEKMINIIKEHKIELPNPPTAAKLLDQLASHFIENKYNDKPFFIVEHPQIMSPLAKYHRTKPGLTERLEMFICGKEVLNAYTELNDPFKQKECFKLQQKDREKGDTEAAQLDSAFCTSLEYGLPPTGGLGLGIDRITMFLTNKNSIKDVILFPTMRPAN

Source: ChEMBL document CHEMBL3988442, “University of Dundee, Small-Polar-MMV Screening Library” (2021).

Each number is a percent effect as filed. How 0% and 100% were set is not recorded. Most values in the screen are low, and negative values occur. Compounds were drawn at random from those tested, without regard to their results.

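Lysine-tRNA ligase, Plasmodium falciparum 3D7 (UniProt Q8IDJ8). Enzyme assay of the cytosolic lysyl-tRNA synthetase in 384-well plates, read by luminescence. Concentration: 30 µM. Direction is inferred from only a few compounds that gave an IC50; most scored high, so higher reads as stronger inhibition. About 69,000 compounds were tested under these conditions; 0.071% (about 49) showed 50% or more at least once.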

compound,Percent Effect
Cc1ccc(-c2ncc(C(=O)N3CCCN4CCC[C@H]4C3)c(O)n2)cc1,-4.67%
CC(C)c1nc(CN2CCOC(CNc3cccnn3)C2)cs1 (configuration not stated),1.13%
CC(C)OCCC(=O)NCC(c1c(F)cccc1F)N(C)C (configuration not stated),-3.163%
CCCn1cnnc1CNC(=O)C1COc2cc(OC)ccc2C1 (configuration not stated),-3.976%
CCN1CCC(CNC(=O)C(c2ccccc2F)N(C)C)(N(C)C)CC1 (configuration not stated),2.61%
Cc1nc[nH]c1CN1CCN(C(=O)CN2CCCC2)[C@H]2CS(=O)(=O)C[C@H]21,6.037%
Cc1cc(CNC(=O)C2CC(=O)N(CCN(C)C)C2)cc(C)n1 (configuration not stated),-0.7813%
COc1cccc(OCCCc2cc(C#N)ccn2)c1,0.8157%
c1cnc(-c2nc(CN3CCCN(Cc4cccs4)CC3)cs2)nc1,-0.3858%
CS(=O)(=O)N1CC2(CCCN2Cc2ccc(Cl)cc2)Cc2ccccc21 (configuration not stated),-0.8637%
c1ncn(CC2CCCN2Cc2cn3ccsc3n2)n1 (configuration not stated),0.1876%
COc1cccc(C(O)Cn2ncc3ncccc3c2=O)c1 (configuration not stated),7.442%
CN(Cc1cccc(F)c1)C(=O)CS(=O)(=O)Cc1c(Cl)cccc1Cl,0.6215%
COc1cccc(C2C3=C(COC3=O)Nc3[nH]nc(C)c32)c1OC (configuration not stated),1.2%
CN1CCN(C(=O)c2cc3sccc3n2Cc2ccccc2)CC1,3.022%
c1ccc2oc(CCCN3CCOC(Cn4cccn4)C3)nc2c1 (configuration not stated),-1.962%
Cc1cc(C(=O)N2C[C@@H]3OCCN(CCN4CCCC4)[C@@H]3C2)c(C)o1,5.329%
CC(C)Cn1cc(NC(=O)NC(C)(C)c2nccs2)cn1,6.347%
CC(=O)N1CCC2(CC1)COCCN2Cc1ccc(F)cc1,-4.156%
Cc1nc(C2CCN(C(=O)c3ccc(Cl)s3)CC2)cc(=O)[nH]1,-3.128%
COCc1nc(N(C)C)ncc1C(=O)OC,-1.641%
CCN(c1ccc(C(=O)N2CCC(C(N)=O)CC2)cc1)S(=O)(=O)CC,-2.128%
CN(CCc1ccccc1)Cc1c(C2CCNCC2)[nH]c2ncccc12,1.194%
COc1cccc(COCC(=O)N2CCCC(N3CCCC3)CC2)c1 (configuration not stated),1.419%
COc1ccc(C(=O)N2CCN(CCO)CC2)c(F)c1,2.047%
CN(C)c1nc2sc(C(=O)N3CCN(C(=O)OC(C)(C)C)CC3)cc2s1,4.302%
COc1ccc(S(=O)(=O)N2C[C@H](OC)[C@]3(CCCO3)C2)cc1,-0.1068%
O=C(NC1CCCN(Cc2c(F)cccc2F)C1)c1cc[nH]n1 (configuration not stated),2.751%
Cc1ccc(C(=O)N2CCCCC2CN(C)C)cc1 (configuration not stated),5.749%
CCOC(=O)c1sc(NC(=O)COC)c(C#N)c1C,-3.516%
COCCO[C@H]1COCCN(Cc2ccc(OC)cc2)C1,-4.681%
CCCN(Cc1cccnc1)C(=O)C1CCCN(C)C1 (configuration not stated),1.302%
CS(=O)(=O)NCc1ncn2c1CN(CCN1CCCC1)CCC2,8.502%
CC(NCc1c(C(C)C)nn(C)c1N(C)C)C(=O)NC1CCCC1 (configuration not stated),13.12%
COCC1(C(=O)N[C@H]2CN(c3ccnc(C)c3)C[C@@H]2C2CC2)CCC1,1.222%
O=S(=O)(Cc1ccccc1)NCc1nnc2n1CCC2,2.956%
O=C(NC1CCS(=O)(=O)C1)c1ccc(-c2ccc(F)cc2)s1 (configuration not stated),5.769%
O=C(c1ccc(Cl)c(Cl)c1)N1CCCC(n2cncn2)C1 (configuration not stated),1.071%
O=C(CCNC(=O)C1CCCC1)NCc1ccccc1Cn1cncn1,7.708%
O=C(C1CCCCC1)N1CCC2(COc3ncccc3S(=O)(=O)N2)C1 (configuration not stated),1.377%
COc1ccc(Nc2nc(N)c(C(C)=O)s2)cc1Cl,3.808%
COc1cc(C)ccc1OCCN1CC[C@@]2(O)CCNC[C@H]2C1,3.499%
O=C(NCC1CC1)C1CCC2(CCN(C(=O)c3ccncc3)CC2)O1 (configuration not stated),0.01216%
Cc1noc(C)c1CCCNC(=O)C1CCN(C(C)C)CC1,4.179%
O=C(Cn1nnn(-c2cccs2)c1=O)NCC1CCOC1 (configuration not stated),-4.135%
COc1ccc2nc(C3CC3)cc(C(=O)NCc3noc(C)n3)c2c1,1.896%
CC(C)c1noc(-c2ccc(-n3cnc(C(=O)O)c3)nc2)n1,-3.723%
CC(OCC1CC1)C(=O)N1CCCN(c2cccnn2)CC1 (configuration not stated),4.438%
COCC1c2nnn(CC3CC3)c2CCN1Cc1ccncc1 (configuration not stated),3.207%
CC(NC(=O)c1cccc(CN2CCN(C)CC2)c1)c1nccs1 (configuration not stated),5.709%
N#CCCCS(=O)(=O)N1CCC(CSc2ccccc2)C1 (configuration not stated),-1.434%
CCc1sc(-c2nnc(CNC(C)Cn3cc(C)cn3)o2)cc1C (configuration not stated),-6.248%
COCCNc1nc(N2CCOCC2)nc2nccnc12,4.287%
Cc1cc(N2CCCC2c2cc(Nc3cnccn3)nc(C)n2)ncn1 (configuration not stated),1.118%
CC(=O)Nc1nc(C(=O)NCCOc2cccc(C)c2)cs1,4.782%
O=C(NCc1ccco1)c1cccc(CN2CCCC2CO)c1 (configuration not stated),5.494%
Cc1cc(C2CCCN2C(=O)Nc2cn[nH]c2)on1 (configuration not stated),1.166%
COCc1n[nH]/c(=N/C(=O)COc2cnc(C)cc2O)s1,2.983%
CN(C)C(=O)N1CCc2c(CNc3ncccn3)cncc2C1,1.97%
Cc1ccc(CNC(C)c2cc(F)ccc2N2CCN(C)CC2)o1 (configuration not stated),7.557%
CCCc1noc(C2CCN(S(=O)(=O)c3cccs3)CC2)n1,6.389%

The first 5 entries again:

compound,Percent Effect
Cc1ccc(-c2ncc(C(=O)N3CCCN4CCC[C@H]4C3)c(O)n2)cc1,-4.67%
CC(C)c1nc(CN2CCOC(CNc3cccnn3)C2)cs1 (configuration not stated),1.13%
CC(C)OCCC(=O)NCC(c1c(F)cccc1F)N(C)C (configuration not stated),-3.163%
CCCn1cnnc1CNC(=O)C1COc2cc(OC)ccc2C1 (configuration not stated),-3.976%
CCN1CCC(CNC(=O)C(c2ccccc2F)N(C)C)(N(C)C)CC1 (configuration not stated),2.61%